From article PMC11281990
Results are given in words; binding and its absence hold for the method and conditions named. Binding seen in cells or lysates may run through a third protein.

T1: Z-DNA/RNA binding protein 1 (rat (endogenous in Sprague Dawley hippocampal neurons)) (UniProt Q8VDA5)
T1 sequence: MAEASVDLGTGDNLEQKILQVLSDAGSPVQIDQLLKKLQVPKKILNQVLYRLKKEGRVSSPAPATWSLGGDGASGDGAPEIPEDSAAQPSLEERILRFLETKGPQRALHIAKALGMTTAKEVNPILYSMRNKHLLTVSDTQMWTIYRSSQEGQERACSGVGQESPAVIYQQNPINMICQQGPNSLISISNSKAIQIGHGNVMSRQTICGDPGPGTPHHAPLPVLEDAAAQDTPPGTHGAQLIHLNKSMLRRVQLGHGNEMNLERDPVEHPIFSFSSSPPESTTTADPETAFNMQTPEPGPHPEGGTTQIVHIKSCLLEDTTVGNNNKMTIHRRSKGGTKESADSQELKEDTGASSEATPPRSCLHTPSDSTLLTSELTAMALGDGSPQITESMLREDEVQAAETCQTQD


Target: T1, Z-DNA/RNA binding protein 1 (rat (endogenous in Sprague Dawley hippocampal neurons))
Assay: co-IP; lysate of rat hippocampal neurons primed with sevoflurane (3%, 6 h); precipitated with 1 ug anti-ZBP1 antibody and protein A/G PLUS-Agarose overnight at 4 C, washed five times with M2 buffer; immunoblot for ADAR1-P150, ADAR1-P110, ADAR2, ADAR3

Row | binding | Molecule
1 | no binding | ADAR2 (from UniProt P51400 1-711)
2 | no binding | ADAR3 (protein, UniProt P97616 1-746) MASVLGSGRGSGGLSSQLKCKSKRRRRRRSKRKDKVSILSTFLAPFKYLSPGTTNTEDEDNLSTSSAEVKENRNVSNLGTRPLPPGDWARGGSTPSVKRKRPLEEGNGGHFCKLQLIWKKLSWSMTPKNALVQLHELKPGLQYRMVSQTGPVHAPVFAVAVEVNGLTFEGTGPTKKKAKMRAAEMALKSFVQFPNAFQAHLAMGSSTSPCTDFTSDQADFPDTLFKEFEPSSRNEDFPGCCPVDTEFLSSAYRRGRLLYHTLDLMGQALPDRSRLAPGALGERNPVVVLNELRSGLRYVCLSETAEKPRVKSFVMAVCVDGRTFEGSGRSKKLAKGQAAQAALQALFDIRLPGHIPSRSKSNLLPQDFADSVSQLVTQKFRELTVGLTSVYARHKTLAGIVMTKGLDTKQAQVIVLSSGTKCISGEHISDQGLVVNDCHAEIVARRAFLHFLYTQLELHLSKHQEDPERSIFIRVKEGGYRLRENILFHLYVSTSPCGDARLNSPYEITIDLNSSKHIVRKFRGHLRTKIESGEGTVPVRGPSAVQTWDGILLGEQLVTMSCTDKIASWNVLGLQGALLCHFIEPVYLHSIIVGSLHHTGHLARVMSHRMEGIGQLPASYRQNRPLLSGVSNAEARQPGKSPHFSANWVVGSADLEIINATTGKRSCGGSSRLCKHVFSARWARLHGRLSTRIPGHGDTPSMYCEAKRGAHTYQSVKQQLFKAFQKAGLGTWVRKPPEQDQFLLSL
